Results are given in words; binding and its absence hold for the method and conditions named. In cells and extracts the contact can be indirect. Some results given as binding are weak or reduced against the parent protein; the word gives no strength.

This assay concerns the target microtubule-associated protein RP/EB family member 2 (human (endogenous in A549/DDP)) (UniProt Q15555). Nature of the assay: co-IP; A549/DDP cells transfected with si-con or si-WDHD1, lysed with RIPA after 24 h; precipitated with anti-MAPRE2 (human IgG as control) overnight at 4°C, protein A + G agarose; Western blot for ubiquitin, WDHD1 and MAPRE2. For orientation: Immunoblotting shows a protein as a band on a membrane.

B1: WD repeat and HMG-box DNA binding protein 1 (protein, UniProt O75717 1-1129)
chain: MPATRKPMRYGHTEGHTEVCFDDSGSFIVTCGSDGDVRIWEDLDDDDPKFINVGEKAYSCALKSGKLVTAVSNNTIQVHTFPEGVPDGILTRFTTNANHVVFNGDGTKIAAGSSDFLVKIVDVMDSSQQKTFRGHDAPVLSLSFDPKDIFLASASCDGSVRVWQISDQTCAISWPLLQKCNDVINAKSICRLAWQPKSGKLLAIPVEKSVKLYRRESWSHQFDLSDNFISQTLNIVTWSPCGQYLAAGSINGLIIVWNVETKDCMERVKHEKGYAICGLAWHPTCGRISYTDAEGNLGLLENVCDPSGKTSSSKVSSRVEKDYNDLFDGDDMSNAGDFLNDNAVEIPSFSKGIINDDEDDEDLMMASGRPRQRSHILEDDENSVDISMLKTGSSLLKEEEEDGQEGSIHNLPLVTSQRPFYDGPMPTPRQKPFQSGSTPLHLTHRFMVWNSIGIIRCYNDEQDNAIDVEFHDTSIHHATHLSNTLNYTIADLSHEAILLACESTDELASKLHCLHFSSWDSSKEWIIDLPQNEDIEAICLGQGWAAAATSALLLRLFTIGGVQKEVFSLAGPVVSMAGHGEQLFIVYHRGTGFDGDQCLGVQLLELGKKKKQILHGDPLPLTRKSYLAWIGFSAEGTPCYVDSEGIVRMLNRGLGNTWTPICNTREHCKGKSDHYWVVGIHENPQQLRCIPCKGSRFPPTLPRPAVAILSFKLPYCQIATEKGQMEEQFWRSVIFHNHLDYLAKNGYEYEESTKNQATKEQQELLMKMLALSCKLEREFRCVELADLMTQNAVNLAIKYASRSRKLILAQKLSELAVEKAAELTATQVEEEEEEEDFRKKLNAGYSNTATEWSQPRFRNQVEEDAEDSGEADDEEKPEIHKPGQNSFSKSTNSSDVSAKSGAVTFSSQGRVNPFKVSASSKEPAMSMNSARSTNILDNMGKSSKKSTALSRTTNNEKSPIIKPLIPKPKPKQASAASYFQKRNSQTNKTEEVKEENLKNVLSETPAICPPQNTENQRPKTGFQMWLEENRSNILSDNPDFSDEADIIKEGMIRFRVLSTEERKVWANKAKGETASEGTEAKKRKRVVDESDETENQEEKAKENLNLSKKQKPLDFSTNQKLSAFAFKQE
Turning to B1, the binding entry is given as “binds”.

These data come from publication PMC7212426.
